These results are taken from publication PMC10788534.

Amino acid sequences for entries named in this document (tags omitted). Residues count along the entry.
UniProt Q01705, residues 1749-2293: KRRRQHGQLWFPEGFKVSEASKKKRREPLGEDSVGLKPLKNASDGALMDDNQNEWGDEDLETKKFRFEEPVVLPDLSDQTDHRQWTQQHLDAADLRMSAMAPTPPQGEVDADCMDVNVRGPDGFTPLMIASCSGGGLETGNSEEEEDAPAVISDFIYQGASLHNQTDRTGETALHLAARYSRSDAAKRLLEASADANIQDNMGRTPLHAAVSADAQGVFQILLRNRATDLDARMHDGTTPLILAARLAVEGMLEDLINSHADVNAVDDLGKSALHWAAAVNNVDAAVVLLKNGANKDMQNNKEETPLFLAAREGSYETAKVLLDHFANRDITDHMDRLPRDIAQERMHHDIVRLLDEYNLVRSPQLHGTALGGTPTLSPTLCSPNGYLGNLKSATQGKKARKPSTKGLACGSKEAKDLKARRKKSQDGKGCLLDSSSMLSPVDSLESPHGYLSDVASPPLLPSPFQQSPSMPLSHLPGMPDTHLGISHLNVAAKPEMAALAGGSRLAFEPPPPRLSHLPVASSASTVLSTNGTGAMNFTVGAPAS

Results are given in words; binding and its absence hold for the method and conditions named. Binding seen in cells or lysates may run through a third protein. Here binding means that the protein was enriched with, or labelled near, the bait; the list need not be complete.

This experiment addresses BioID2-NICD (HEK293 or NIH3T3 stable line; the text does not tell which) (mouse) (UniProt Q01705). The experiment can be described thus: proximity labelling; BioID as in HEK293 and NIH3T3 stable lines; results told for the study as a whole (core-proximal proteins found in at least two of HEK293, 3T3 and BioGRID, and others) without naming the cell line.

B1: ZNF281 (protein, UniProt Q9Y2X9 1-895)
chain: MKIGSGFLSGGGGTGSSGGSGSGGGGSGGGGGGGSSGRRAEMEPTFPQGMVMFNHRLPPVTSFTRPAGSAAPPPQCVLSSSTSAAPAAEPPPPPAPDMTFKKEPAASAAAFPSQRTSWGFLQSLVSIKQEKPADPEEQQSHHHHHHHHYGGLFAGAEERSPGLGGGEGGSHGVIQDLSILHQHVQQQPAQHHRDVLLSSSSRTDDHHGTEEPKQDTNVKKAKRPKPESQGIKAKRKPSASSKPSLVGDGEGAILSPSQKPHICDHCSAAFRSSYHLRRHVLIHTGERPFQCSQCSMGFIQKYLLQRHEKIHSREKPFGCDQCSMKFIQKYHMERHKRTHSGEKPYKCDTCQQYFSRTDRLLKHRRTCGEVIVKGATSAEPGSSNHTNMGNLAVLSQGNTSSSRRKTKSKSIAIENKEQKTGKTNESQISNNINMQSYSVEMPTVSSSGGIIGTGIDELQKRVPKLIFKKGSRKNTDKNYLNFVSPLPDIVGQKSLSGKPSGSLGIVSNNSVETIGLLQSTSGKQGQISSNYDDAMQFSKKRRYLPTASSNSAFSINVGHMVSQQSVIQSAGVSVLDNEAPLSLIDSSALNAEIKSCHDKSGIPDEVLQSILDQYSNKSESQKEDPFNIAEPRVDLHTSGEHSELVQEENLSPGTQTPSNDKASMLQEYSKYLQQAFEKSTNASFTLGHGFQFVSLSSPLHNHTLFPEKQIYTTSPLECGFGQSVTSVLPSSLPKPPFGMLFGSQPGLYLSALDATHQQLTPSQELDDLIDSQKNLETSSAFQSSSQKLTSQKEQKNLESSTGFQIPSQELASQIDPQKDIEPRTTYQIENFAQAFGSQFKSGSRVPMTFITNSNGEVDHRVRTSVSDFSGYTNMMSDVSEPCSTRVKTPTSQSYR
For B1, the binding entry is on record as “binds”.

B2: TRPS1 (protein, UniProt Q9UHF7 1-1281)
chain: MVRKKNPPLRNVASEGEGQILEPIGTESKVSGKNKEFSADQMSENTDQSDAAELNHKEEHSLHVQDPSSSSKKDLKSAVLSEKAGFNYESPSKGGNFPSFPHDEVTDRNMLAFSSPAAGGVCEPLKSPQRAEADDPQDMACTPSGDSLETKEDQKMSPKATEETGQAQSGQANCQGLSPVSVASKNPQVPSDGGVRLNKSKTDLLVNDNPDPAPLSPELQDFKCNICGYGYYGNDPTDLIKHFRKYHLGLHNRTRQDAELDSKILALHNMVQFSHSKDFQKVNRSVFSGVLQDINSSRPVLLNGTYDVQVTSGGTFIGIGRKTPDCQGNTKYFRCKFCNFTYMGNSSTELEQHFLQTHPNKIKASLPSSEVAKPSEKNSNKSIPALQSSDSGDLGKWQDKITVKAGDDTPVGYSVPIKPLDSSRQNGTEATSYYWCKFCSFSCESSSSLKLLEHYGKQHGAVQSGGLNPELNDKLSRGSVINQNDLAKSSEGETMTKTDKSSSGAKKKDFSSKGAEDNMVTSYNCQFCDFRYSKSHGPDVIVVGPLLRHYQQLHNIHKCTIKHCPFCPRGLCSPEKHLGEITYPFACRKSNCSHCALLLLHLSPGAAGSSRVKHQCHQCSFTTPDVDVLLFHYESVHESQASDVKQEANHLQGSDGQQSVKESKEHSCTKCDFITQVEEEISRHYRRAHSCYKCRQCSFTAADTQSLLEHFNTVHCQEQDITTANGEEDGHAISTIKEEPKIDFRVYNLLTPDSKMGEPVSESVVKREKLEEKDGLKEKVWTESSSDDLRNVTWRGADILRGSPSYTQASLGLLTPVSGTQEQTKTLRDSPNVEAAHLARPIYGLAVETKGFLQGAPAGGEKSGALPQQYPASGENKSKDESQSLLRRRRGSGVFCANCLTTKTSLWRKNANGGYVCNACGLYQKLHSTPRPLNIIKQNNGEQIIRRRTRKRLNPEALQAEQLNKQQRGSNEEQVNGSPLERRSEDHLTESHQREIPLPSLSKYEAQGSLTKSHSAQQPVLVSQTLDIHKRMQPLHIQIKSPQESTGDPGNSSSVSEGKGSSERGSPIEKYMRPAKHPNYSPPGSPIEKYQYPLFGLPFVHNDFQSEADWLRFWSKYKLSVPGNPHYLSHVPGLPNPCQNYVPYPTFNLPPHFSAVGSDNDIPLDLAIKHSRPGPTANGASKEKTKAPPNVKNEGPLNVVKTEKVDRSTQDELSTKCVHCGIVFLDEVMYALHMSCHGDSGPFQCSICQHLCTDKYDFTTHIQRGLHRNNAQVEKNGKPKE
For the molecule B2, the binding entry is reported as “binds”.

B3: PDS5A (protein, UniProt Q29RF7 1-1337)
chain: MDFTAQPKPATALCGVVSADGKIAYPPGVKEITDKITTDEMIKRLKMVVKTFMDMDQDSEDEKQQYLPLALHLASEFFLRNPNKDVRLLVACCLADIFRIYAPEAPYTSHDKLKDIFLFITRQLKGLEDTKSPQFNRYFYLLENLAWVKSYNICFELEDCNEIFIQLFRTLFSVINNSHNKKVQMHMLDLMSSIIMEGDGVTQELLDSILINLIPAHKNLNKQSFDLAKVLLKRTVQTIEACIANFFNQVLVLGRSSVSDLSEHVFDLIQELFAIDPHLLLSVMPQLEFKLKSNDGEERLAVVRLLAKLFGSKDSDLATQNRPLWQCFLGRFNDIHVPVRLESVKFASHCLMNHPDLAKDLTEYLKVRSHDPEEAIRHDVIVTIITAAKRDLALVNDQLLGFVRERTLDKRWRVRKEAMMGLAQLYKKYCLHGEAGKEAAEKVSWIKDKLLHIYYQNSIDDKLLVEKIFAQYLVPHNLETEERMKCLYYLYASLDPNAVKALNEMWKCQNMLRSHVRELLDLHKQPTSEANCSAMFGKLMTIAKNLPDPGKAQDFVKKFNQVLGDDEKLRSQLELLISPTCSCKQADICVREIARKLANPKQPTNPFLEMVKFLLERIAPVHIDSEAISALVKLMNKSIEGTADDEEEGVSPDTAIRSGLELLKVLSFTHPTSFHSAETYESLLQCLRMEDDKVAEAAIQIFRNTGHKIETDLPQIRSTLIPILHQKAKRGTPHQAKQAVHCIHAIFTNKEVQLAQIFEPLSRSLNADVPEQLITPLVSLGHISMLAPDQFASPMKSVVANFIVKDLLMNDRSTGEKNGKLWSPDEEVSPEVLAKVQAIKLLVRWLLGMKNNQSKSANSTLRLLSAMLVSEGDLTEQKRISKSDMSRLRLAAGSAIMKLAQEPCYHEIITPEQFQLCALVINDECYQVRQIFAQKLHKALVKLLLPLEYMAIFALCAKDPVKERRAHARQCLLKNISIRREYIKQNPMATEKLLSLLPEYVVPYMIHLLAHDPDFTRSQDVDQLRDIKECLWFMLEVLMTKNENNSHAFMKKMAENIKLTRDAQSPDESKTNEKLYTVCDVALCVINSKSALCNADSPKDPVLPMKFFTQPEKDFCNDKSYISEETRVLLLTGKPKPAGVLGAVNKPLSATGRKPYVRSTGTETGSNINVNSELNPSTGNRSREQSSEAAETGVSENEENPVRIISVTPVKNIDPVKNKEINSDQATQGNISSDRGKKRTVTAAGAENIQQKTDEKVDESGPPAPSKPRRGRRPKSESQGNATKNDDLNKPINKGRKRAAVGQESPGGLEAGNAKAPKLQDLAKKAAPAERQIDLQR
In the case of B3, the binding result was “binds”.
